Publication PMC11589570, “Critical assessment of LC3/GABARAP ligands used for degrader development and ligandability of LC3/GABARAP binding pockets” (Nature Communications, 2024)
Values joined by “and” are separate entries in the source; they are usually repeats but may differ in a detail not shown here. Identical values can stand only once. The source gives many values for each of these; only a part stands here.

Tested on: U2OS cells
Experiment: Cell growth assay (IncuCyte confluence over 72 h)
Format: cell-based
Parameters: key: % of well area covered by cells (confluence)
Settings: listed as AN1
Experimental: Cell growth assay: Cell confluence (phase) from RPE1 (hTERT RPE-1, ATCC CLR_4000) or U2OS (ATCC, HTB-96) cell lines were monitored over time with the IncuCyte S3 (Sartiorius, Germany) in 384-well plates in 50 ul DMEM media, supplemented with 10% Fetal Bovine Serum (FBS) 1% penicillin/Streptomycin and incubated 24 h before treatment. Experiment was performed as described in Cano-Franco et al.. […] Cell confluence is represented as % of area covered by cells. Each data point represents the average ratio or confluence obtained from three individual wells of the plate.

## O=C1Nc2ccc(Br)cc2C1=Cc1cc(O)c(O)c(Br)c1 [compound 1]
3 uM, 20 h
  U2OS cell growth: 49.5372 and 63.9954 and 66.5979
3 uM, 22 h
  U2OS cell growth: 71.9828 and 74.2941 and 71.4786
3 uM, 24 h
  U2OS cell growth: 68.3189 and 75.8628 and 73.4788
3 uM, 26 h
  U2OS cell growth: 68.531 and 74.8786 and 76.0744
3 uM, 28 h
  U2OS cell growth: 73.2218 and 82.5864 and 77.9138
3 uM, 30 h
  U2OS cell growth: 54.1977 and 72.9996 and 80.6851
3 uM, 32 h
  U2OS cell growth: 79.6776 and 84.5464 and 83.8305
3 uM, 34 h
  U2OS cell growth: 74.8762 and 79.5995 and 82.9707
3 uM, 36 h
  U2OS cell growth: 75.3876 and 84.9019 and 85.9964
3 uM, 38 h
  U2OS cell growth: 82.926 and 90.304 and 88.3974
3 uM, 40 h
  U2OS cell growth: 88.2242 and 92.4014 and 92.1105
3 uM, 44 h
  U2OS cell growth: 94.0842 and 94.3574 and 93.1037
3 uM, 46 h
  U2OS cell growth: 82.2102 and 87.7126 and 90.0824
3 uM, 48 h
  U2OS cell growth: 89.1328 and 96.9598 and 96.585
3 uM, 50 h
  U2OS cell growth: 90.0128 and 96.1353 and 95.2835
3 uM, 52 h
  U2OS cell growth: 95.9996 and 98.499 and 96.29
3 uM, 56 h
  U2OS cell growth: 97.5757 and 98.1744 and 98.4306
3 uM, 58 h
  U2OS cell growth: 97.4982 and 98.984 and 98.5198
3 uM, 60 h
  U2OS cell growth: 99.2604 and 99.8989 and 99.4423
3 uM, 62 h
  U2OS cell growth: 99.5537 and 99.8097 and 99.0391
3 uM, 64 h
  U2OS cell growth: 96.4104 and 99.6436 and 99.704
3 uM, 66 h
  U2OS cell growth: 99.6008 and 99.9064 and 99.545
3 uM, 68 h
  U2OS cell growth: 99.3531 and 99.9053 and 99.6846
3 uM, 70 h
  U2OS cell growth: 99.6278 and 99.9759 and 99.8607
3 uM, 72 h
  U2OS cell growth: 99.9524 and 99.994 and 99.8329
3 uM, time 0 h
  U2OS cell growth: 29.7201 and 47.2784 and 41.7377
3 uM, time 2 h
  U2OS cell growth: 29.7842 and 54.6617 and 48.4873
3 uM, time 4 h
  U2OS cell growth: 33.9624 and 54.0786 and 52.9009
3 uM, time 6 h
  U2OS cell growth: 38.8605 and 51.1228 and 50.7719
3 uM, time 8 h
  U2OS cell growth: 42.1337 and 57.7255 and 41.8843
3 uM, time 22 h
  U2OS cell growth: 60.2144 and 74.486 and 64.0311
3 uM, time 24 h
  U2OS cell growth: 55.621 and 70.7252 and 66.2885
3 uM, time 26 h
  U2OS cell growth: 60.3322 and 73.2809 and 74.2642
3 uM, time 28 h
  U2OS cell growth: 62.8302 and 79.3873 and 67.846
3 uM, time 30 h
  U2OS cell growth: 63.2269 and 78.0479 and 71.695
3 uM, time 32 h
  U2OS cell growth: 66.5849 and 82.5124 and 76.6779
3 uM, time 34 h
  U2OS cell growth: 65.6557 and 75.9494 and 77.2737
3 uM, time 36 h
  U2OS cell growth: 69.6563 and 84.3381 and 81.5701
3 uM, time 38 h
  U2OS cell growth: 74.2243 and 83.92 and 78.0675
3 uM, time 40 h
  U2OS cell growth: 76.6182 and 88.9657 and 83.5985
3 uM, time 42 h
  U2OS cell growth: 77.3452 and 86.9234 and 83.4074
3 uM, time 44 h
  U2OS cell growth: 79.8815 and 89.9187 and 87.8127
3 uM, time 46 h
  U2OS cell growth: 69.75 and 87.7092 and 81.9132
3 uM, time 48 h
  U2OS cell growth: 77.927 and 90.5394 and 87.7588
3 uM, time 50 h
  U2OS cell growth: 77.3102 and 91.5974 and 89.1349
3 uM, time 52 h
  U2OS cell growth: 83.1764 and 94.577 and 93.1094
3 uM, time 54 h
  U2OS cell growth: 81.4243 and 90.052 and 92.5145
3 uM, time 56 h
  U2OS cell growth: 87.3425 and 96.9804 and 93.3521
3 uM, time 60 h
  U2OS cell growth: 91.8917 and 99.073 and 98.2955
3 uM, time 62 h
  U2OS cell growth: 92.7416 and 98.9046 and 97.9563
3 uM, time 64 h
  U2OS cell growth: 90.0012 and 99.0949 and 98.9711
3 uM, time 66 h
  U2OS cell growth: 93.1677 and 99.0281 and 98.6746
3 uM, time 70 h
  U2OS cell growth: 95.9313 and 99.6209 and 99.6222
3 uM, time 72 h
  U2OS cell growth: 96.7519 and 99.7991 and 99.6458
5 uM, 20 h
  U2OS cell growth: 66.1105 and 66.9281 and 68.7152
5 uM, 22 h
  U2OS cell growth: 72.1661 and 69.0033 and 72.3438
5 uM, 24 h
  U2OS cell growth: 76.2192 and 69.7907 and 74.8997
5 uM, 26 h
  U2OS cell growth: 75.7604 and 73.2768 and 78.9965
5 uM, 28 h
  U2OS cell growth: 80.0384 and 75.5499 and 82.1865
5 uM, 30 h
  U2OS cell growth: 81.5639 and 78.4728 and 82.9593
5 uM, 32 h
  U2OS cell growth: 84.2914 and 79.4472 and 84.9655
5 uM, 34 h
  U2OS cell growth: 85.2005 and 83.1739 and 87.1373
5 uM, 36 h
  U2OS cell growth: 88.1636 and 83.5088 and 91.0693
5 uM, 38 h
  U2OS cell growth: 89.6612 and 85.0601 and 91.0446
5 uM, 40 h
  U2OS cell growth: 91.6041 and 89.3128 and 95.5071
5 uM, 42 h
  U2OS cell growth: 94.9692 and 92.1558 and 96.7607
5 uM, 44 h
  U2OS cell growth: 95.0679 and 92.2568 and 97.8147
5 uM, 46 h
  U2OS cell growth: 93.3904 and 93.3329 and 95.5299
5 uM, 50 h
  U2OS cell growth: 95.5007 and 93.8085 and 97.3956
5 uM, 54 h
  U2OS cell growth: 95.5438 and 96.6612 and 98.4762
5 uM, 56 h
  U2OS cell growth: 99.0888 and 97.7893 and 98.9685
5 uM, 60 h
  U2OS cell growth: 99.625 and 98.7381 and 99.85
5 uM, 62 h
  U2OS cell growth: 99.5606 and 98.9479 and 99.8264
5 uM, 64 h
  U2OS cell growth: 99.7444 and 98.9484 and 99.9513
5 uM, 66 h
  U2OS cell growth: 99.8972 and 99.2655 and 99.5228
5 uM, 68 h
  U2OS cell growth: 99.8256 and 99.7983 and 99.8674
5 uM, 70 h
  U2OS cell growth: 99.9624 and 99.7878 and 99.9768
5 uM, 72 h
  U2OS cell growth: 99.9714 and 99.9585 and 99.9158
5 uM, time 0 h
  U2OS cell growth: 36.551 and 37.5498 and 37.4124
5 uM, time 2 h
  U2OS cell growth: 43.9795 and 41.3375 and 41.452
5 uM, time 4 h
  U2OS cell growth: 47.3866 and 48.3912 and 45.4736
5 uM, time 6 h
  U2OS cell growth: 49.4313 and 48.8996 and 59.1056
